# Assay results: ChEMBL document CHEMBL4513141, “CO-ADD screening of NIH (USA) - Clinical Collection” (2021)
# The other results are listed elsewhere or left out. Results with a measured potency or affinity are listed apart.
# Test system: Pseudomonas aeruginosa
# Details: Concentration 20 uM; ASSAY_TEST Inhibition of Bacterial Growth; detection method Absorption (OD600); MEDIA CAMHB; plate type 384well; NBS; CORNING #3640; time 18 hr
row,SMILES,Inhibition [%]
1,CC(C)(C)NCC(O)c1ccc(O)c(CO)c1.CC(C)(C)NCC(O)c1ccc(O)c(CO)c1.O=S(=O)(O)O (centres undefined) [ALBUTEROL SULFATE],17.29
2,CCN1CCC[C@H]1CNC(=O)c1cc(S(N)(=O)=O)ccc1OC [LEVOSULPIRIDE],6.68
3,NC(=O)c1cccnc1 [NIACINAMIDE],14.85
4,CCCc1nc(C(C)(C)O)c(C(=O)OCc2oc(=O)oc2C)n1Cc1ccc(-c2ccccc2-c2nnn[nH]2)cc1 [OLMESARTAN MEDOXOMIL],33.73
5,CC(=O)[C@@]1(O)CC[C@H]2[C@@H]3C[C@H](C)C4=CC(=O)CC[C@]4(C)[C@H]3CC[C@@]21C,27.35
6,CCCC1O[C@@H]2C[C@H]3[C@@H]4CCC5=CC(=O)C=C[C@]5(C)[C@H]4[C@@H](O)C[C@]3(C)[C@]2(C(=O)CO)O1 (some centres undefined) [BUDESONIDE],4.71
7,CC1(C)O[C@@H]2C[C@H]3[C@@H]4C[C@H](F)C5=CC(=O)C=C[C@]5(C)[C@H]4[C@@H](O)C[C@]3(C)[C@]2(C(=O)CO)O1 [FLUNISOLIDE],20.61
8,CC(C)(C)C(O)/C=C/c1ccc2c(c1)OCO2 (centres undefined) [STIRIPENTOL],8.01
9,C[C@]12CC[C@@H]3c4ccc(O)cc4CC[C@H]3[C@@H]1CC[C@@H]2O [ESTRADIOL],2.47
10,COc1ccc2cc([C@H](C)C(=O)[O-])ccc2c1.[Na+] [NAPROXEN SODIUM],12.66
11,CC(=O)O.NCc1ccc(S(N)(=O)=O)cc1 [MAFENIDE ACETATE],13.6
12,C=C1/C(=C\C=C2/CCC[C@]3(C)[C@@H]([C@H](C)/C=C/[C@@H](O)C4CC4)CC[C@@H]23)C[C@@H](O)C[C@@H]1O [CALCIPOTRIENE],13.54
13,C[C@H]1O[C@@H](O[C@H]2[C@@H](O)C[C@H](O[C@H]3[C@@H](O)C[C@H](O[C@H]4CC[C@@]5(C)[C@H](CC[C@@H]6[C@@H]5C[C@@H](O)[C@]5(C)C(C7=CC(=O)OC7)CC[C@]65O)C4)O[C@@H]3C)O[C@@H]2C)C[C@H](O)[C@@H]1O (some centres undefined),8.24
14,CN(C)CC[C@@H](c1ccc(Cl)cc1)c1ccccn1.O=C(O)/C=C\C(=O)O [DEXCHLORPHENIRAMINE MALEATE],16.81
15,CCc1ccc(CCOc2ccc(CC3SC(=O)NC3=O)cc2)nc1.Cl (centres undefined) [PIOGLITAZONE HYDROCHLORIDE],8.48
16,CS(=O)(=O)O.Cc1ccc(NC(=O)c2ccc(CN3CCN(C)CC3)cc2)cc1Nc1nccc(-c2cccnc2)n1 [IMATINIB MESYLATE],14.33
17,CCCC(CCC)C(=O)O [VALPROIC ACID],13.05
18,COC1=CC(=O)C[C@@H](C)[C@]12Oc1c(Cl)c(OC)cc(OC)c1C2=O [GRISEOFULVIN],21.48
19,"COc1cc(N)c(Cl)cc1C(=O)N[C@@H]1CCN(CCCOc2ccc(F)cc2)C[C@@H]1OC.O [(R,S)-CISAPRIDE MONOHYDRATE]",6.11
20,CC1(C)O[C@@H]2[C@@H](CO[C@@]3(COS(N)(=O)=O)OC(C)(C)O[C@@H]23)O1 [TOPIRAMATE],14.21
21,CCOC(=O)C1=C(C)NC(C)=C(C(=O)OC)C1c1cccc([N+](=O)[O-])c1 (centres undefined) [NITRENDIPINE],7.78
22,CC[C@H](C)C(=O)O[C@H]1C[C@@H](C)C=C2C=C[C@H](C)[C@H](CC[C@@H]3C[C@@H](O)CC(=O)O3)[C@H]21 [LOVASTATIN],18.99
23,NS(=O)(=O)c1cc2c(cc1C(F)(F)F)NC(Cc1ccccc1)NS2(=O)=O (centres undefined) [BENDROFLUMETHIAZIDE],4.02

# Pulled one by one from the entries so far (three):
row,SMILES,Inhibition [%]
12,C=C1/C(=C\C=C2/CCC[C@]3(C)[C@@H]([C@H](C)/C=C/[C@@H](O)C4CC4)CC[C@@H]23)C[C@@H](O)C[C@@H]1O [CALCIPOTRIENE],13.54
22,CC[C@H](C)C(=O)O[C@H]1C[C@@H](C)C=C2C=C[C@H](C)[C@H](CC[C@@H]3C[C@@H](O)CC(=O)O3)[C@H]21 [LOVASTATIN],18.99
13,C[C@H]1O[C@@H](O[C@H]2[C@@H](O)C[C@H](O[C@H]3[C@@H](O)C[C@H](O[C@H]4CC[C@@]5(C)[C@H](CC[C@@H]6[C@@H]5C[C@@H](O)[C@]5(C)C(C7=CC(=O)OC7)CC[C@]65O)C4)O[C@@H]3C)O[C@@H]2C)C[C@H](O)[C@@H]1O (some centres undefined),8.24

# Remaining list, next part.

row,SMILES,Inhibition [%]
1,CC(O)CO.N[C@@H](C(=O)N[C@@H]1C(=O)N2C(C(=O)O)=C(CSc3c[nH]nn3)CS[C@H]12)c1ccc(O)cc1,36.53
2,Cl.Nc1nc2ccc(OC(F)(F)F)cc2s1,16.88
3,CCN1CCCC1CNC(=O)c1cc(S(=O)(=O)CC)c(N)cc1OC (centres undefined) [AMISULPRIDE],24.74
4,C/C=C1/[C@H]2C=C(C)C[C@]1(N)c1ccc(O)nc1C2,13.6
5,CC(C)c1nc(CN(C)C(=O)N[C@H](C(=O)N[C@@H](Cc2ccccc2)C[C@H](O)[C@H](Cc2ccccc2)NC(=O)OCc2cncs2)C(C)C)cs1 [RITONAVIR],15.52
6,Cl.O.OC[C@H]1O[C@@H](n2cnc3c(N[C@H]4CCC[C@@H]4O)ncnc32)[C@@H](O)C1O (some centres undefined),12.03
7,CC(C)[C@H]1CC[C@H](C(=O)N[C@H](Cc2ccccc2)C(=O)O)CC1 [NATEGLINIDE],11.33
8,COc1nc(C)nc(Cl)c1NC1=NCCN1.Cl [MOXONIDINE HYDROCHLORIDE],5.26
9,CN1CCC(=C2c3ccccc3CCc3sccc32)CC1.O=C(O)/C=C\C(=O)O,21.61
10,CCOC(=O)C1=C(C)NC(C)=C(C(=O)OC)C1c1cccc(Cl)c1Cl (centres undefined) [FELODIPINE],12.75
11,O=C([O-])Cc1ccccc1Nc1c(Cl)cccc1Cl.[Na+] [DICLOFENAC SODIUM],8.93
12,CC(=O)OCC(=O)[C@@]1(O)CC[C@H]2[C@@H]3C[C@H](C)C4=CC(=O)C=C[C@]4(C)[C@H]3[C@@H](O)C[C@@]21C [METHYLPREDNISOLONE ACETATE],10.61
13,CCCCC(=O)N(Cc1ccc(-c2ccccc2-c2nnn[nH]2)cc1)[C@H](C(=O)O)C(C)C,30.1
14,CNNCc1ccc(C(=O)NC(C)C)cc1.Cl [PROCARBAZINE HYDROCHLORIDE],14.26
15,CC[N+](C)(CC)CCOC(=O)C(O)(c1ccccc1)C1CCCCC1.[Br-] (centres undefined) [OXYPHENONIUM BROMIDE],14.05
16,CC(C(=O)[O-])c1ccc(CC2CCCC2=O)cc1.[Na+] (centres undefined) [LOXOPROFEN SODIUM],2.03
17,CN(C)[C@@H]1C(=O)C(C(=O)NCN2CCCC2)=C(O)[C@@]2(O)C(O)=C3C(=O)c4c(O)cccc4[C@@](C)(O)C3CC12 (some centres undefined),20.32
18,O=C1Nc2ccc(Cl)cc2[C@@](C#CC2CC2)(C(F)(F)F)O1 [EFAVIRENZ],7.84
19,C=C[C@H]1CN2CC[C@H]1C[C@@H]2[C@@H](O)c1ccnc2ccc(OC)cc12 [QUINIDINE],8.31
20,O=S(=O)([O-])CCS.[Na+] [MESNA],6.26
21,C[C@H](CS)C(=O)N1CCC[C@H]1C(=O)O [CAPTOPRIL],11.48
22,CC(C)(C)NC[C@H](O)COc1nsnc1N1CCOCC1.O=C(O)/C=C\C(=O)O [TIMOLOL MALEATE],7.23
23,Cn1nnc2c(C(N)=O)ncn2c1=O [TEMOZOLOMIDE],16.54

row,SMILES,Inhibition [%]
1,Nc1nc(N)c2nc(-c3ccccc3)c(N)nc2n1,9.67
2,COc1cc(OC)c(C(=O)CCCN2CCCC2)c(OC)c1.Cl,20.78
3,CC1(C)S[C@@H]2[C@H](NC(=O)[C@H](N)c3ccc(O)cc3)C(=O)N2[C@H]1C(=O)O [AMOXICILLIN],10.8
4,Cl.OC(CCN1CCCC1)(c1ccccc1)C1CCCCC1 (centres undefined) [PROCYCLIDINE HYDROCHLORIDE],7.85
5,COc1ccc(-c2cc(=O)c3c(OC)c(OC)c(OC)c(OC)c3o2)cc1OC [NOBILETIN],15.83
6,CCN(CC)CCNC(=O)c1ccc(N)cc1.Cl [PROCAINAMIDE HYDROCHLORIDE],1.69
7,NNC(=O)c1ccncc1 [ISONIAZID],1.16
8,CC(C)[C@H](N)C(=O)OCCOCn1cnc2c(=O)nc(N)[nH]c21.Cl [VALACYCLOVIR HYDROCHLORIDE],17.42
9,Cl.Nc1c2c(nc3ccccc13)CCCC2 [TACRINE HYDROCHLORIDE],19.73
10,CCOC(=O)c1ccc(OC(=O)CCCCCN=C(N)N)cc1.CS(=O)(=O)O,17.94
11,O=C(O)c1cccnc1 [NIACIN],7.84
12,CC(=O)Nc1nnc(S(N)(=O)=O)s1 [ACETAZOLAMIDE],10.89
13,CC(C)Oc1ccc2c(=O)c(-c3ccccc3)coc2c1 [IPRIFLAVONE],14.52
14,CCCCC(=O)O[C@H]1CC[C@H]2[C@@H]3CCc4cc(O)ccc4[C@H]3CC[C@]12C [ESTRADIOL VALERATE],3.52
15,Cl.Clc1ccccc1CN1CCc2sccc2C1 [TICLOPIDINE HYDROCHLORIDE],13.69
16,CC(Cc1ccccc1)(NC(=O)CN)c1ccccc1.Cl (centres undefined) [REMACEMIDE HYDROCHLORIDE],20.6
17,CNCC(O)c1ccc(O)c(O)c1 (centres undefined) [RACEPINEPHRINE],18.53
18,Cc1ccc(-c2cc(C(F)(F)F)nn2-c2ccc(S(N)(=O)=O)cc2)cc1 [CELECOXIB],8.62
19,C[C@@H]1CN(CCCn2c3ccccc3c3ccccc32)C[C@H](C)N1.Cl.O,11.4
20,Cc1cccc(C)c1OCC(C)N.Cl (centres undefined) [MEXILETINE HYDROCHLORIDE],15.77
21,CN(C)CCCN1c2ccccc2CCc2ccc(Cl)cc21.Cl [CLOMIPRAMINE HYDROCHLORIDE],21.88
22,COc1cc2nc(N3CCN(C(=O)C4COc5ccccc5O4)CC3)nc(N)c2cc1OC (centres undefined) [DOXAZOSIN],9.67
23,COc1ccc(Cl)cc1C(=O)NCCc1ccc(S(=O)(=O)NC(=O)NC2CCCCC2)cc1 [GLYBURIDE],-8.45
